Article PMC6514072

Biological target: NEU1 sialidase (endogenous, plasma membrane of macrophages) (human (endogenous in THP-1)) (UniProt Q99519)
Assay: affinity purification with mass spectrometry; 4.8 x 10^8 macrophages differentiated from THP-1 cells; surface biotinylation (sulfo-NHS-LC-biotin), lysis in HEPES buffer pH 7.5 with 1% Triton X-100, monomeric avidin agarose, elution with 10 mM biotin, then immunoprecipitation with rabbit polyclonal anti-NEU1 on protein G Sepharose (overnight, 4 °C); SDS-PAGE, 23 bands, LC-MS/MS; rabbit IgG control; two independent purifications

binding	Binder
binds	Ras-related protein Rab-39A (protein, UniProt Q14964 1-217) METIWIYQFRLIVIGDSTVGKSCLLHRFTQGRFPGLRSPACDPTVGVDFFSRLLEIEPGKRIKLQLWDTAGQERFRSITRSYYRNSVGGFLVFDITNRRSFEHVKDWLEEAKMYVQPFRIVFLLVGHKCDLASQRQVTREEAEKLSADCGMKYIETSAKDATNVEESFTILTRDIYELIKKGEICIQDGWEGVKSGFVPNTVHSSEEAVKPRKECFC
binds	Rab-like protein 3 (protein, UniProt Q5HYI8 1-236) MASLDRVKVLVLGDSGVGKSSLVHLLCQNQVLGNPSWTVGCSVDVRVHDYKEGTPEEKTYYIELWDVGGSVGSASSVKSTRAVFYNSVNGIIFVHDLTNKKSSQNLRRWSLEALNRDLVPTGVLVTNGDYDQEQFADNQIPLLVIGTKLDQIHETKRHEVLTRTAFLAEDFNPEEINLDCTNPRYLAAGSSNAVKLSRFFDKVIEKRYFLREGNQIPGFPDRKRFGAGTLKSLHYD
binds	Syntaxin-6 (protein, UniProt O43752 1-255) MSMEDPFFVVKGEVQKAVNTAQGLFQRWTELLQDPSTATREEIDWTTNELRNNLRSIEWDLEDLDETISIVEANPRKFNLDATELSIRKAFITSTRQVVRDMKDQMSTSSVQALAERKNRQALLGDSGSQNWSTGTTDKYGRLDRELQRANSHFIEEQQAQQQLIVEQQDEQLELVSGSIGVLKNMSQRIGGELEEQAVMLEDFSHELESTQSRLDNVMKKLAKVSHMTSDRRQWCAIAILFAVLLVVLILFLVL
binds	RAB6A-GEF complex partner protein 2 (protein, UniProt Q92546 1-391) MIEVVAELSRGPVFLAGEALECVVTVTNPLPPTATSASSEALAWASAQIHCQFHASESRVALPPPDSSQPDVQPDSQTVFLPHRGERGQCILSTPPKILFCDLRLDPGESKSYSYSEVLPIEGPPSFRGQSVKYVYKLTIGCQRVNSPITLLRVPLRVLVLTGLQDVRFPQDEAVAPSSPFLEEDEGGKKDSWLAELAGERLMAATSCRSLHLYNISDGRGKVGTFGIFKSVYRLGEDVVGTLNLGEGTVACLQFSVSLQTEERVQPEYQRRRGAGGVPSVSHVTHARHQESCLHTTRTSFSLPIPLSSTPGFCTAIVSLKWRLHFEFVTSREPGLVLLPPVEQPEPTTWTGPEQVPVDTFSWDLPIKVLPTSPTLASYAAPGPSTSTITI

These are yes or no findings as the source states them, for the method shown. Binding seen in cells or lysates may run through a third protein. Here binding means that the protein was enriched with, or labelled near, the bait; the list need not be complete.
